Assay results reported in the supplement of paper PMC5949888.
Most values lie at the floor of the assay. Slopes are relative: functional sequences can read slightly below zero.

Tested on: Saccharomyces cerevisiae PS128 hsf1 delta, HSF1(1-493) fusion
Assay: growth estimate (transactivation domain function in HSF1 fusion, heat-shock survival) (a.u. (slope of normalised read count over time)); higher = stronger growth at 37°C, i.e. more transactivation activity
Details: library: random library
Protocol: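 Random 60-nt DNA library encoding peptides of up to 20 aa, fused to the C-terminus of yeast HSF1 residues 1-493 (C-terminal TAD deleted) and expressed from the native HSF1 promoter on a CEN plasmid in hsf1-deleted S. cerevisiae PS128. Cells were selected at 37°C on -trp 5-FOA plates for 0, 2, 4, 6 and 8 days and amplicons were sequenced. Growth estimate is the slope of a robust linear fit of total-sum-normalised read counts (normalised to the first time point) over time, using at least 2 replicates. Sequences are classed functional (TAD activity) above a threshold of -0.13, set from stop-codon control sequences.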

Substance | growth estimate
FEGPWVKCTHLCGSRGHPAE | < -0.25
LTPIPLGPSPSRRGS | < -0.25
RIFDMKGGPDPGR | < -0.25
LCRLSGLRKSPTVLNRGARN | < -0.25
VFPMTQK | < -0.25
GVSKFWTVIR | < -0.25
RGRKE | -0.25
YGVGGLPFSRPSLNTAAP | < -0.25
RYRQERATH | < -0.25
QSLELH | < -0.25
EHICRVVIARLTWVLRQV | < -0.25
KVCTYAVSGERMLSNVSCVQ | < -0.25
KFIITSAWALHK | < -0.25
PQI | < -0.25
VWCNGGIRGPAESVRPPERR | < -0.25
GRT | < -0.25
LRSVGCRVVYAS | < -0.25
VLPTAMAVLEGV | < -0.25
TAALHNLFVP | < -0.25
HEGSCAQMRGAYELIKRYGS | < -0.25
PSTRRPLGR | < -0.25
SYRIVCCTDGIALSVLMTVP | < -0.25
RGGPSSRTIYMLKFGPWAVK | < -0.25
SPKPFEHVI | -0.199
MAFVWS | < -0.25
SQARRTGGRRVRSANSFFQA | < -0.25

Substance | growth estimate
RYVFEGV | < -0.25
CRGISRIARRQSTSTAYWVR | < -0.25
GNVDMVEAC | < -0.25
SHLSSGERYDSFPHGRTTLT | < -0.25
HFITPGA | < -0.25
AHRG | < -0.25
CHREFAERHGRVRASVRNIA | < -0.25
CGCSYLRG | < -0.25
STARHPG | < -0.25
DVN | < -0.25
LCLQDHMIDEDQGGAGNASN | < -0.25
DCFVGFFYCGCQDRGEKWLA | < -0.25
WCVHPAWTFSGGNF | < -0.25
RNARKLKDHVHPSHQYLVSF | < -0.25
GGRKKANIAASYGWD | < -0.25
SNQSHHLFSIGRNAT | < -0.25
GHSVRLNSTFGSSARDDAVQ | < -0.25
TNDVRRCTPHPDRVTLTQEQ | < -0.25
RHPPLPRHWHRH | -0.248
HTDGRRKLRRSVSAHSVTYP | < -0.25
GLDALIGPYLGPYSPCMG | -0.199
VHATIR | < -0.25
DLIF | < -0.25
GKQVGRKGLHLYYTPTDRLT | -0.243
ARSHG | < -0.25
CQLFMGRRSQGLLFLCGDGP | < -0.25

Look-ups from the entries so far:
growth estimate with CHREFAERHGRVRASVRNIA reads < -0.25
growth estimate with ARSHG reads < -0.25
growth estimate with GHSVRLNSTFGSSARDDAVQ reads < -0.25

The list continues:

Substance | growth estimate
GHIKSHCTRWVVSGRHAHIG | < -0.25
LLWDTGEGTHCHGKVTGLSS | < -0.25
VTQSWGASKEFTEGAVCGP | < -0.25
RHWWFCPSWSTPDYRVADYC | < -0.25
PSTILGYRHFREEMPSCC | < -0.25
WFEE | -0.231
VGR | < -0.25
LFYQRTPHVLTSQLSVSHTG | < -0.25
LCSA | < -0.25
RPPVPTSSRWI | < -0.25
IDRYVHELQRRPIFPSSRHS | < -0.25
NSYVNGGLYVPVGN | < -0.25
QQALPSLRKQALRLSGPQTF | < -0.25
AAYSGYQLEQRMSELAERHS | < -0.25
AGGANDMAWRSREITTSLPH | < -0.25
NPTGVPYVTVCETSCYLPWW | < -0.25
MLFVCSG | < -0.25
LYYILSLVRVQKGYLRMETG | < -0.25
QGAGRGLASSWEAECLAVSR | < -0.25
VNQAWIMIIDIVNASGLLD | < -0.25
PQHALLSKHPNS | < -0.25
PRVCHALYGCYLTGYHGVSE | < -0.25
LAAHWIFRPKDRNRGVHDAM | < -0.25
VMRVRLGSGPPIIRLSCKLL | < -0.25
RIVRPSGRGILIPPGFTGRV | < -0.25
AYVKRNFLKLRVLGRGVEGS | < -0.25

Already shown: an excerpt of the list.
Substance | growth estimate
MLFVCSG | < -0.25
LYYILSLVRVQKGYLRMETG | < -0.25
QGAGRGLASSWEAECLAVSR | < -0.25

(further entries)

Substance | growth estimate
GLRRRDSSRSNTRQAHPQ | < -0.25
SRSESWGY | < -0.25
LPRVGQVQRNQPSPGCLADS | < -0.25
SIFRVERCLGFNGRHRYLSG | < -0.25
RGFSGSCITAHLHGLYVLNA | < -0.25
WYCRAARGETVLASYLARMR | < -0.25
SLF | < -0.25
MTLMNFYELPARG | < -0.25
SRPSTPSKRFGASNDAMLSA | < -0.25
HGRMLNLHGQSGGMKAWVSH | < -0.25
RAVYVPFESMPMTPVSRSAA | < -0.25
AVLQTKLQPQVGLDVLAHSY | < -0.25
SGSISLGLNCMWLKSIRVSS | < -0.25
YPIFL | -0.25
AIHALMQVYIPECCRYQGTV | -0.242
LSDSQVEGFPHESFSRCPVS | < -0.25
STQTSPDSVILAYAL | < -0.25
ERLSKQAGLGRMTASIRHLS | < -0.25
DPPI | < -0.25
CRHNSVRHSTYS | < -0.25
SVL | < -0.25
VAFHAAGQSPAYEPS | < -0.25
IISPCCYRVQL | < -0.25
LQDLPEEWGQVQAPSLSKPN | < -0.25
IVGLDAGGRTDDLSGP | < -0.25
SLLG | < -0.25

Given field by field: part of the list above
VAFHAAGQSPAYEPS
  growth estimate = < -0.25
IISPCCYRVQL
  growth estimate = < -0.25

Continued.

Substance | growth estimate
ILFTTLGIGVIGNVIFRPG | < -0.25
RLCLTASRCNKNMSGDRGAV | < -0.25
QRFRFCTGLHCG | < -0.25
TGDRTRSVHRLGAVMILEVP | < -0.25
DRGRARARPEPKARPSAERK | < -0.25
QWDRLSLSVSVGSGRSSCIH | < -0.25
VMLFEWR | < -0.25
ANPGKYTDRFKRA | < -0.25
ICAMLGVRISYVLTQSDESP | -0.243
GSAYGMVPTFKRHMSWCTQD | < -0.25
GNFLRNLIRRIRRFARCRDE | < -0.25
HREGTWFYLTLIRSKY | < -0.25
CPIRGERD | < -0.25
NLNGLPNLTRRGIHAARLKG | 0.0232
GPVEYARDSHPDVLVPRRLH | < -0.25
DLIQTSLSVKGRA | < -0.25
DSGSR | < -0.25
HDGRVDERVSLSQNCVRSAW | < -0.25
ACFEVVPMAV | < -0.25
STESPIIFLRSPSGREIVTN | < -0.25
DFDEGSLA | < -0.25
RPERGKI | < -0.25
LAGLDFKGR | < -0.25
DVTDWGRANMKEQRRLKSAV | < -0.25
FNCKLESGQYSVSGTWYAVS | < -0.25
FGLEHQLTCAIRSAN | < -0.25

Substance | growth estimate
CISPDMSIAYWEGWWSL | 0.794
RLTRPVSVGGWIQRFLNRHA | < -0.25
RRSSTMEA | -0.243
FRPVK | < -0.25
RISVRCATHIGFIFRDIRGH | < -0.25
IRFRWVCEFGQK | < -0.25
LFCQHRGGF | < -0.25
KFSVLLWCRHK | < -0.25
LSGSHAGQESTTSATISALL | -0.231
QKFGTRRILCRRYRSAWNSQ | < -0.25
RWERVRHLGRPHGLHTML | < -0.25
FAGLNMIYLIREADPARWAR | < -0.25
SNGFTSCFGTRWTINWA | < -0.25
APFCPPAPT | -0.243
CSPACLPGVVSSFSRDEPSA | < -0.25
KVIEESVLSVWVYQ | < -0.25
KCYGGLLAIVMVPYWKYARA | < -0.25
SLLSG | < -0.25
TSVTILGLIIDRCEAFRAPA | < -0.25
TRDSGMGMRGGGIPSIAV | < -0.25
MPSQGSGES | < -0.25
